{
  "source": "PubChem BioAssay AID493014",
  "about": "(National Center for Advancing Translational Sciences (NCATS), 2011)",
  "assay": "qHTS Assay to Find Inhibitors of Chronic Active B-Cell Receptor Signaling;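 as to activity change, negative = inhibition: plate controls were basal doxycycline-induced cells for no effect and cells given 10 µM MG132 for full effect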",
  "settings": "ABC-DLBCL IkBa-CBG/CBR reporter, luminescence ratio (green luciferase fused to IkBa over red control in TMD8 lymphoma cells), 4 h",
  "method_in_brief": "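Concentration-response series (up to 46 uM) were applied to TMD8 dual-reporter cells for 4 h at 37C with doxycycline. Green/red ratio, after filter-overlap correction, defined %Activity; red signal alone was normalised to basal cells and zero luminescence.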",
  "key": {"[1]": {"settings": "activity change, negative = inhibition: at 46.1 µM (top of the series)"}},
  "note": "The whole screen tested about 340,000 compounds, of which about 170 (0.05%) were called active. This list was built around the results that the source calls inconclusive (neither active nor inactive); the mix of calls is not that of the screen. Calls follow the shape of the dose curve; as a rule, active = well fitted inhibition curve with a large enough effect in the signal ratio, with a control signal flat (not every such curve was filed as active); inconclusive = small, poorly fitted or top-dose-only effect, or effect the other way, or a change in a side signal; inactive = flat fitted curve, though single readings scatter; the % refers to the signal ratio. Potencies of inconclusive entries are doubtful fits and often do not repeat. Potency is read from the fitted curve at half-maximal effect.",
  "data": [
    {"smiles": "CCc1nc2oc3ccc(C)cc3c(=O)c2cc1C(=O)OC", "values": [
      {"measurement": "activity change, negative = inhibition", "setting": "[1]", "value": "inactive"}
    ]},
    {"smiles": "CCOC(=O)N1CCC(N2C(=O)c3ccccc3C2Nc2ccc3c(c2)OCCO3)CC1", "note": "(configuration not stated)", "values": [
      {"measurement": "Potency", "setting": "[1]", "value": "inconclusive: 0.231 µM [rising, full curve, poor fit]"}
    ]},
    {"smiles": "COc1cccc(-c2cc(C(=O)NCc3ccco3)c3ccccc3n2)c1", "values": [
      {"measurement": "activity change, negative = inhibition", "setting": "[1]", "value": "inactive"}
    ]},
    {"smiles": "Cc1noc(/C=C/N(C)C)c1S(=O)(=O)N(C)CC(=O)NC1CCCCC1", "values": [
      {"measurement": "activity change, negative = inhibition", "setting": "[1]", "value": "inconclusive: -2.79%"}
    ]},
    {"smiles": "Cc1oc2ccc(NS(=O)(=O)c3ccc(C(C)(C)C)cc3)cc2c1C(=O)Nc1ccccc1", "values": [
      {"measurement": "activity change, negative = inhibition", "setting": "[1]", "value": "inconclusive: 19.1%"}
    ]},
    {"smiles": "COc1ccc(OC)c(/C(O)=C/C(=O)C(=O)Nc2cc(C)cc(C)c2)c1", "values": [
      {"measurement": "Potency", "setting": "[1]", "value": "inconclusive: 8.2 µM [falling, partial curve, poor fit]"}
    ]},
    {"smiles": "CCCCC1CCC(C(=O)N(CCCC)c2c(N)n(CCCC)c(=O)[nH]c2=O)CC1", "note": "(configuration not stated)", "values": [
      {"measurement": "activity change, negative = inhibition", "setting": "[1]", "value": "inactive"}
    ]},
    {"smiles": "O=[N+]([O-])c1ccc(Sc2nccn2Cc2ccccc2)c([N+](=O)[O-])c1", "values": [
      {"measurement": "Potency", "setting": "[1]", "value": "inconclusive: 23.1 µM [falling, single point]"}
    ]},
    {"smiles": "O=C(NC(O)C(=O)c1ccccc1)c1ccccn1", "note": "(configuration not stated)", "values": [
      {"measurement": "activity change, negative = inhibition", "setting": "[1]", "value": "inconclusive: -22.1%"}
    ]},
    {"smiles": "Cc1cc(C(=O)CSc2ccc3c(c2)OCCO3)c(C)n1C1CC1", "values": [
      {"measurement": "activity change, negative = inhibition", "setting": "[1]", "value": "inconclusive: -14.1%"}
    ]},
    {"smiles": "C[C@]12CC[C@H](O)CC1=CCC1C2CC[C@@]2(C)C1CC[C@@H]2NC(=O)CCC(=O)O", "note": "(some centres not stated)", "values": [
      {"measurement": "activity change, negative = inhibition", "setting": "[1]", "value": "inconclusive: 2.58%"}
    ]},
    {"smiles": "Cc1cc(C)nc(SCc2c(F)cccc2Cl)n1", "values": [
      {"measurement": "Potency", "setting": "[1]", "value": "inconclusive: 10 µM [falling, partial curve]"}
    ]},
    {"smiles": "COc1ccc(/C=C/C(=O)N2CCCc3ccccc32)c(OC)c1", "values": [
      {"measurement": "Potency", "setting": "[1]", "value": "inconclusive: 35.5 µM [falling, single point]"}
    ]},
    {"smiles": "O=C(NN1C(=O)C2C(c3ccccc3)C=CC(c3ccccc3)C2C1=O)c1cccc(Br)c1", "note": "(configuration not stated)", "values": [
      {"measurement": "Potency", "setting": "[1]", "value": "inconclusive: 32.6 µM [rising, partial curve, poor fit]"}
    ]},
    {"smiles": "CC1Nc2ncnc(N3CCc4ccccc4C3)c2N(Cc2ccc(Br)cc2)C1=O", "note": "(configuration not stated)", "values": [
      {"measurement": "Potency", "setting": "[1]", "value": "inconclusive: 25.9 µM [falling, partial curve, poor fit]"}
    ]},
    {"smiles": "CCO[C@H]1OC(C(=O)Nc2ccccc2)=C[C@@H](c2ccc(Br)cc2)[C@@H]1CCCO", "values": [
      {"measurement": "activity change, negative = inhibition", "setting": "[1]", "value": "inconclusive: 11.2%"}
    ]},
    {"smiles": "O=C(O)c1ccc(-n2ncc3c2/C(=C/c2cccc([N+](=O)[O-])c2)CC3)cc1", "values": [
      {"measurement": "Potency", "setting": "[1]", "value": "inconclusive: 3.98 µM [falling, partial curve, poor fit]"}
    ]},
    {"smiles": "CCN(CC)c1ccc(/C=C2\\CCC(/C=N/NC(=O)c3ccc(=O)n(C)c3)=C2N2CCOCC2)cc1", "values": [
      {"measurement": "activity change, negative = inhibition", "setting": "[1]", "value": "inactive"}
    ]},
    {"smiles": "Cc1cc(C)c(S(=O)(=O)NCC2CCC(C(=O)NCCCN3CCC(C)CC3)CC2)c(C)c1", "note": "(configuration not stated)", "values": [
      {"measurement": "activity change, negative = inhibition", "setting": "[1]", "value": "inactive"}
    ]},
    {"smiles": "O=C(Cc1ccccc1)NNC(=O)c1ccccc1C(=O)O", "values": [
      {"measurement": "activity change, negative = inhibition", "setting": "[1]", "value": "inconclusive: -17.7%"}
    ]},
    {"smiles": "O=C(O)CCNc1ccc2c(c1)OCCO2", "values": [
      {"measurement": "activity change, negative = inhibition", "setting": "[1]", "value": "inconclusive: 11.4%"}
    ]},
    {"smiles": "CC(C)c1ccc(Nc2nnc(SCC(=O)c3nnc(-c4ccccc4)o3)s2)cc1", "values": [
      {"measurement": "activity change, negative = inhibition", "setting": "[1]", "value": "inconclusive: 7.44%"}
    ]},
    {"smiles": "O=C(CSc1nc(=O)[nH]c2c1CCCC2)NCc1ccccc1Cl", "values": [
      {"measurement": "activity change, negative = inhibition", "setting": "[1]", "value": "inactive"}
    ]},
    {"smiles": "CN(C)c1ccc(C(=O)OCC(=O)NC2CCCCCC2)cc1", "values": [
      {"measurement": "activity change, negative = inhibition", "setting": "[1]", "value": "inactive"}
    ]},
    {"smiles": "NC(=NCCCCCCN=C(N)/N=C(\\N)Nc1ccc(Cl)cc1)/N=C(\\N)Nc1ccc(Cl)cc1", "values": [
      {"measurement": "Potency", "setting": "[1]", "value": "inconclusive: 4.47 µM [rising, single point]"},
      {"measurement": "activity change, negative = inhibition", "setting": "[1]", "value": "inconclusive: 1.63%"},
      {"measurement": "activity change, negative = inhibition", "setting": "at 46.1 µM (top of the series)", "value": "inactive: 3.74%"}
    ]},
    {"smiles": "O=C(/C=C/c1cccc(Cl)c1)NCc1cccs1", "values": [
      {"measurement": "activity change, negative = inhibition", "setting": "[1]", "value": "inconclusive: -3.92%"}
    ]},
    {"smiles": "Cc1ccc(N(CC(=O)NCc2ccco2)C(=O)CCC(=O)Nc2nccs2)cc1", "values": [
      {"measurement": "activity change, negative = inhibition", "setting": "[1]", "value": "inconclusive: 4.84%"}
    ]},
    {"smiles": "COc1ccc(/C=C2\\CN(Cc3ccccc3)C/C(=C\\c3ccc(OC)cc3)C2=O)cc1", "values": [
      {"measurement": "activity change, negative = inhibition", "setting": "[1]", "value": "inconclusive: -40.7%"}
    ]},
    {"smiles": "Cc1ccc(C)c(N2CCN(C(=O)c3cc4c(C)nc5ccccc5c4o3)CC2)c1", "values": [
      {"measurement": "activity change, negative = inhibition", "setting": "[1]", "value": "inconclusive: -11.9%"}
    ]},
    {"smiles": "Cc1ccc(CNC(=O)CN(C)C2=NS(=O)(=O)c3ccccc32)cc1", "values": [
      {"measurement": "activity change, negative = inhibition", "setting": "[1]", "value": "inactive"}
    ]},
    {"smiles": "N#C/C(=C\\c1ccncc1)c1nc2c(s1)CCCC2", "values": [
      {"measurement": "activity change, negative = inhibition", "setting": "[1]", "value": "inconclusive: 4.31%"}
    ]},
    {"smiles": "Cc1cccc(N(O)C(=O)Nc2cccc(Cl)c2)c1", "values": [
      {"measurement": "activity change, negative = inhibition", "setting": "[1]", "value": "inconclusive: 19.1%"}
    ]},
    {"smiles": "CCOC(=O)Cn1nnc(-c2cccc(OC)c2)n1", "values": [
      {"measurement": "activity change, negative = inhibition", "setting": "[1]", "value": "inconclusive: 5.59%"}
    ]},
    {"smiles": "O=c1cc(-c2ccncc2)oc2c1ccc1ccccc12", "values": [
      {"measurement": "activity change, negative = inhibition", "setting": "[1]", "value": "inconclusive: 14.9%"}
    ]},
    {"smiles": "CCc1sc(C(=O)Nc2nc(C)cs2)cc1C", "values": [
      {"measurement": "Potency", "setting": "[1]", "value": "inconclusive: 25.1 µM [falling, single point]"}
    ]},
    {"smiles": "Cc1cccc(/C=N/NC(=O)c2ccc(NC(=O)c3ccccc3C)cc2)n1", "values": [
      {"measurement": "activity change, negative = inhibition", "setting": "[1]", "value": "inconclusive: -2.25%"}
    ]},
    {"smiles": "Cc1ccccc1N(CC(=O)NCc1ccco1)C(=O)CCC(=O)Nc1nccs1", "values": [
      {"measurement": "activity change, negative = inhibition", "setting": "[1]", "value": "inactive"}
    ]},
    {"smiles": "CC1CCN(c2c(NCC3CCC(C(=O)NC4CCCCCC4)CC3)c(=O)c2=O)CC1", "note": "(configuration not stated)", "values": [
      {"measurement": "activity change, negative = inhibition", "setting": "[1]", "value": "inconclusive: -1.73%"}
    ]},
    {"smiles": "COc1ccccc1N(CCC#N)C(=O)CSc1nnc2ccccn12", "values": [
      {"measurement": "activity change, negative = inhibition", "setting": "[1]", "value": "inconclusive: 5.63%"}
    ]},
    {"smiles": "COc1ccc(-c2oc3ccccc3c(=O)c2OC(C)=O)cc1", "values": [
      {"measurement": "activity change, negative = inhibition", "setting": "[1]", "value": "inactive"}
    ]},
    {"smiles": "CCCn1c(C2CCCN2c2nc(C)cs2)nc2cc(Cl)c(Cl)cc21", "note": "(configuration not stated)", "values": [
      {"measurement": "Potency", "setting": "[1]", "value": "inconclusive: 12.6 µM [falling, partial curve]"}
    ]},
    {"smiles": "Cc1cc(C)n2nc(N)c(N=Nc3ccc(Cl)cc3)c2n1", "values": [
      {"measurement": "activity change, negative = inhibition", "setting": "[1]", "value": "inconclusive: 1.97%"}
    ]},
    {"smiles": "CS(=O)(=O)c1ccc(C(=O)NCC2(N3CCOCC3)CCCCC2)cc1", "values": [
      {"measurement": "activity change, negative = inhibition", "setting": "[1]", "value": "inactive"}
    ]},
    {"smiles": "O=C(NCc1cccc(Cl)c1)N1CCN(S(=O)(=O)c2ccccc2F)CC1", "values": [
      {"measurement": "activity change, negative = inhibition", "setting": "[1]", "value": "inactive"}
    ]},
    {"smiles": "CCOC(CNC(=O)c1cc2c(=O)n(CC)c3ccccc3c2s1)OCC", "values": [
      {"measurement": "activity change, negative = inhibition", "setting": "[1]", "value": "inactive"}
    ]},
    {"smiles": "Clc1ccc(-[n+]2c(-c3cccc(Br)c3)[nH]c3nc4ccccc4nc32)cc1", "values": [
      {"measurement": "activity change, negative = inhibition", "setting": "[1]", "value": "inactive"}
    ]},
    {"smiles": "CN(C)c1ccc(/C=C/C=N/Nc2nc(N3CCOCC3)nc(N3CCOCC3)n2)cc1", "values": [
      {"measurement": "Potency", "setting": "[1]", "value": "inconclusive: 4.47 µM [falling, single point]"}
    ]},
    {"smiles": "CC(=C/c1ccccc1)/C=N/NC(=O)c1cc(C)oc1C", "values": [
      {"measurement": "Potency", "setting": "[1]", "value": "inconclusive: 7.31 µM [falling, partial curve]"}
    ]},
    {"smiles": "Cc1ccc(C(=O)NNC(=O)c2ccc3c(c2)OCCO3)cc1", "values": [
      {"measurement": "activity change, negative = inhibition", "setting": "[1]", "value": "inconclusive: 4.23%"}
    ]},
    {"smiles": "COc1ccc(NC(=O)CSc2ncc(-c3ccc(F)cc3)n2Cc2ccco2)cc1", "values": [
      {"measurement": "activity change, negative = inhibition", "setting": "[1]", "value": "inconclusive: -0.389%"}
    ]}
  ]
}
